Assay results as given in doi:10.1101/2021.03.08.433705.
Results are given in words; binding and its absence hold for the method and conditions named. Binding seen in cells or lysates may run through a third protein. Here binding means that the protein was enriched with, or labelled near, the bait; the list need not be complete.

The chains behind the UniProt entries cited, without tags or fusion partners.
UniProt Q6W2J9: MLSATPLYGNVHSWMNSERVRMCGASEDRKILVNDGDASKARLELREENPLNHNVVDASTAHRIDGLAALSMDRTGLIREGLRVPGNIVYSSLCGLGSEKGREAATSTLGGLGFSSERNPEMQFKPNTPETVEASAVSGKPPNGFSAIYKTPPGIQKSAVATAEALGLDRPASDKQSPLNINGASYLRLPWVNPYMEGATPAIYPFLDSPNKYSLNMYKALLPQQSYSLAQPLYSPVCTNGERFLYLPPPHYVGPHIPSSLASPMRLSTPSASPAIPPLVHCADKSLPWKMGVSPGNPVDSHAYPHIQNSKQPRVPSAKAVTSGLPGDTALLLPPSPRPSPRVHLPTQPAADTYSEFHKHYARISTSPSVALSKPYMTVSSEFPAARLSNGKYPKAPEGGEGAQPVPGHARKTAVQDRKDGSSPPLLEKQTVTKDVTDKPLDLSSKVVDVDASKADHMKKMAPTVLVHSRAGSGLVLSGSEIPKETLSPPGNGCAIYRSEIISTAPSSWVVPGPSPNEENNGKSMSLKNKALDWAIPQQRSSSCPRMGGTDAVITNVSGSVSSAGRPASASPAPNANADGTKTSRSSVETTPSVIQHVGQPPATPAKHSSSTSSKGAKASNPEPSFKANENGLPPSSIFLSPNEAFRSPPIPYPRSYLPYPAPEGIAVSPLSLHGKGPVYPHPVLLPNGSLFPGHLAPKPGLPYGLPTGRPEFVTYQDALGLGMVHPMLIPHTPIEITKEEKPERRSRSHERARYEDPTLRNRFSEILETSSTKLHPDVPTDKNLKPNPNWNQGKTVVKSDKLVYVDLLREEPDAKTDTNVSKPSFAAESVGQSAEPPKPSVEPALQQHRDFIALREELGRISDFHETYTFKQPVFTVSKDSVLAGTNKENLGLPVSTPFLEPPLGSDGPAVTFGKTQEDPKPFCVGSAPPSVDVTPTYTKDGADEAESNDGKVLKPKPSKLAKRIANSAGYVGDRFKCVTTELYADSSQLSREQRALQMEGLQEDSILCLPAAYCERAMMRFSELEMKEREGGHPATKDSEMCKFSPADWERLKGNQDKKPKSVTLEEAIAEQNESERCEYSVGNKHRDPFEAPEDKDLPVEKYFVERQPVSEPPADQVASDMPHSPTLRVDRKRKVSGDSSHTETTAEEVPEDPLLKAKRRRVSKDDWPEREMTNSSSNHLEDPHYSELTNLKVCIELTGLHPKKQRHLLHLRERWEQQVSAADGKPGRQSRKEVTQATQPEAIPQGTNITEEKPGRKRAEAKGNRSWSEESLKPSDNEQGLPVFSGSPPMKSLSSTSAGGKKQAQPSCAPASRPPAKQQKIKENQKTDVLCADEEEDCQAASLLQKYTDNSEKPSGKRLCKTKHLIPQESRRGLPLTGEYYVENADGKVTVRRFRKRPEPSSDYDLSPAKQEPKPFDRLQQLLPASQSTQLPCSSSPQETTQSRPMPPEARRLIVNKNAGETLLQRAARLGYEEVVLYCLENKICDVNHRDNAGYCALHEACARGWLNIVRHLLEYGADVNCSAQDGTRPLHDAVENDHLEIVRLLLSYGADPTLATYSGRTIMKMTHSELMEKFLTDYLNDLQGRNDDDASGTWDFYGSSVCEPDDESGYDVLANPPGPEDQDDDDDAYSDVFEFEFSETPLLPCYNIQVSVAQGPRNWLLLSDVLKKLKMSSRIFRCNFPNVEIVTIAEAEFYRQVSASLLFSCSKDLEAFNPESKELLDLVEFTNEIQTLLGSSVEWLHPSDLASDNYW
UniProt Q93009: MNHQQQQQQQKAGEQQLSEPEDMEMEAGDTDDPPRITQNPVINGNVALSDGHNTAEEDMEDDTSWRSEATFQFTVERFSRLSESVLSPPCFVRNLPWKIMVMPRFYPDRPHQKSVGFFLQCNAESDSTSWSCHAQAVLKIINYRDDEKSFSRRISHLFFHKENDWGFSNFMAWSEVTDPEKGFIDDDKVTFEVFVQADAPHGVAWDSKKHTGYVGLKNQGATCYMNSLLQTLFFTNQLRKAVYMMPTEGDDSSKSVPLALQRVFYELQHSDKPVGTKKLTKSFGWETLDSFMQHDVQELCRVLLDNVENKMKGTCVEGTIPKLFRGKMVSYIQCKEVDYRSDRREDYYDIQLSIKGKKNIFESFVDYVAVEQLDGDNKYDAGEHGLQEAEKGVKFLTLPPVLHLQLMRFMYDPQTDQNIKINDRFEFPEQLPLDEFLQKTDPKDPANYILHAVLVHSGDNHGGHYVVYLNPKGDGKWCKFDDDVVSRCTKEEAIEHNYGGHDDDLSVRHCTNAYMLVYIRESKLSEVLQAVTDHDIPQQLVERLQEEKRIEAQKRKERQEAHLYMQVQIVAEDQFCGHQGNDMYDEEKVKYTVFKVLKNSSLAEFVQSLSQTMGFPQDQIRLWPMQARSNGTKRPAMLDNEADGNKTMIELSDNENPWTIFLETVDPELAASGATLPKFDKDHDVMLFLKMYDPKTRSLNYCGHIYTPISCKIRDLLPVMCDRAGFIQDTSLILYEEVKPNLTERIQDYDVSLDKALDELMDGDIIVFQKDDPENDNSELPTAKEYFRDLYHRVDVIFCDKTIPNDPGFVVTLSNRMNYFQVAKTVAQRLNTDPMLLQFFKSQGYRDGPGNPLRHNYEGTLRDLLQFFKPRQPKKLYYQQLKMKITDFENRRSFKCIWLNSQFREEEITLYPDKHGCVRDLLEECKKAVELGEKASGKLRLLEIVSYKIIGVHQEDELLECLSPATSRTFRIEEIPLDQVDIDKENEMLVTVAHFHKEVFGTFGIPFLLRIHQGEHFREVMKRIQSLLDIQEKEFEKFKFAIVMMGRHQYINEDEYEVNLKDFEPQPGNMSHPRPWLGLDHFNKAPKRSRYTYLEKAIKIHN
UniProt Q9BSM1: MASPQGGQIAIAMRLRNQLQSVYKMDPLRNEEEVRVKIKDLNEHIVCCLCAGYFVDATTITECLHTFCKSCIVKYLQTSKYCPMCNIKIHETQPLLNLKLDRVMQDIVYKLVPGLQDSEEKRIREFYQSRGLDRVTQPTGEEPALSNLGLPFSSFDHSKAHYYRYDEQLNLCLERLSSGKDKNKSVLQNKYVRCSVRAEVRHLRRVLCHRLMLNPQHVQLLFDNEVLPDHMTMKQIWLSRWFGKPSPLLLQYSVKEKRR

B1: KDM2B (endogenous) (protein, UniProt Q8NHM5 1-1336)
chain: MAGPQMGGSAEDHPPRKRHAAEKQKKKTVIYTKCFEFESATQRPIDRQRYDENEDLSDVEEIVSVRGFSLEEKLRSQLYQGDFVHAMEGKDFNYEYVQREALRVPLIFREKDGLGIKMPDPDFTVRDVKLLVGSRRLVDVMDVNTQKGTEMSMSQFVRYYETPEAQRDKLYNVISLEFSHTKLEHLVKRPTVVDLVDWVDNMWPQHLKEKQTEATNAIAEMKYPKVKKYCLMSVKGCFTDFHIDFGGTSVWYHVFRGGKIFWLIPPTLHNLALYEEWVLSGKQSDIFLGDRVERCQRIELKQGYTFFIPSGWIHAVYTPVDSLVFGGNILHSFNVPMQLRIYEIEDRTRVQPKFRYPFYYEMCWYVLERYVYCVTQRSHLTQEYQRESMLIDAPRKPSIDGFSSDSWLEMEEEACDQQPQEEEEKDEEGEGRDRAPKPPTDGSTSPTSTPSEDQEALGKKPKAPALRFLKRTLSNESEESVKSTTLAVDYPKTPTGSPATEVSAKWTHLTEFELKGLKALVEKLESLPENKKCVPEGIEDPQALLEGVKNVLKEHADDDPSLAITGVPVVTWPKKTPKNRAVGRPKGKLGPASAVKLAANRTTAGARRRRTRCRKCEACLRTECGECHFCKDMKKFGGPGRMKQSCIMRQCIAPVLPHTAVCLVCGEAGKEDTVEEEEGKFNLMLMECSICNEIIHPGCLKIKESEGVVNDELPNCWECPKCNHAGKTGKQKRGPGFKYASNLPGSLLKEQKMNRDNKEGQEPAKRRSECEEAPRRRSDEHSKKVPPDGLLRRKSDDVHLRKKRKYEKPQELSGRKRASSLQTSPGSSSHLSPRPPLGSSLSPWWRSSLTYFQQQLKPGKEDKLFRKKRRSWKNAEDRMALANKPLRRFKQEPEDELPEAPPKTRESDHSRSSSPTAGPSTEGAEGPEEKKKVKMRRKRRLPNKELSRELSKELNHEIQRTENSLANENQQPIKSEPESEGEEPKRPPGICERPHRFSKGLNGTPRELRHQLGPSLRSPPRVISRPPPSVSPPKCIQMERHVIRPPPISPPPDSLPLDDGAAHVMHREVWMAVFSYLSHQDLCVCMRVCRTWNRWCCDKRLWTRIDLNHCKSITPLMLSGIIRRQPVSLDLSWTNISKKQLSWLINRLPGLRDLVLSGCSWIAVSALCSSSCPLLRTLDVQWVEGLKDAQMRDLLSPPTDNRPGQMDNRSKLRNIVELRLAGLDITDASLRLIIRHMPLLSKLHLSYCNHVTDQSINLLTAVGTTTRDSLTEINLSDCNKVTDQCLSFFKRCGNICHIDLRYCKQVTKEGCEQFIAEMSVSVQFGQVEEKLLQKLS

Target: BCOR (endogenous wild type, K562) (human (endogenous in K562)) (UniProt Q6W2J9)
Assay: affinity purification with mass spectrometry

Molecule | binding
USP7 (endogenous) (from UniProt Q93009 1-1102) | binds
PCGF1 (endogenous) (from UniProt Q9BSM1 1-259) | binds
B1 | binds
